Results taken from paper PMC12722469.
The exact form of at least one protein or probe is not confirmed. Weaker means in comparison with the reference protein, sequence or condition of that experiment.

System: MBP-OUR1/OsbZIP1-DB (Oryza sativa)
Assay: EMSA
Conditions: 25.3 nM probe, PBS(-), 1 mM 2-mercaptoethanol, 0.4-0.8 uM protein, 4 C 30 min, pH not stated, recombinant protein, protein details: MBP (pMAL-c2), label: Cy5 on reverse strand (5' of Klenow primer S87)

Sequence | binding result (clear shifts at 0.6 and 0.8 uM protein, 6% PAGE in 0.5x TBE at …) | binding result (binding markedly reduced, 6% PAGE in 0.5x TBE at 4 C)
CTTGGCCGCTAGCTACGGAAGCGTACACGTTCACGTACGTTCATCGTCGTAACACTGTAC (double strand) [OsPIN9-OUR1cis] | binds | –
CTTGGCCGCTAGCTACGGAAGCGTAACATGGACATGACGTTCATCGTCGTAACACTGTAC (double strand) [OsPIN9-OUR1cis_mutated] | – | binds more weakly
